Results are given in words; binding and its absence hold for the method and conditions named. Binding seen in cells or lysates may run through a third protein. Some results given as binding are weak or reduced against the parent protein; the word gives no strength.
Tests used:
[1] = molecular target: GST-β-arr1 fusion protein (UniProt P29066); assay: pull-down; 300 μg lysate of OVCAR3 cells stimulated or not with ET-1, incubated with GST or GST-β-arr1 and Glutathione-Sepharose beads for 2 h at 4 °C; washed three times with PBS; WB; only the target purified
[2] = molecular target: integrin β1 (human (endogenous in SKOV3 and OVCAR3)) (UniProt P05556); assay: proximity ligation; endogenous proteins in fixed OVCAR3 cells stimulated with ET-1 and/or AMB and/or ATN161; Duolink anti-mouse PLUS and anti-rabbit MINUS probes; negative controls with one primary antibody and irrelevant IgG
[3] = molecular target: β-arrestin1 (human (endogenous in SKOV3 and OVCAR3)) (UniProt P49407); assay: as above
[4] = molecular target: β-arrestin1 (human (endogenous in SKOV3 and OVCAR3)) (UniProt P49407); assay: co-IP; lysates of SKOV3 cells stimulated with ET-1 (100 nM, 5 min); precleared whole-cell lysates immunoprecipitated with anti-β-arr1 or irrelevant IgG and protein A or G Sepharose, 4 °C overnight; WB; silencing of talin1 also tested (Supplementary Fig. 4B)

The chains behind the UniProt entries cited, without tags or fusion partners. Where a name states a change or a piece, a line headed by the entry shows the natural chain unless it says otherwise.
UniProt P29066: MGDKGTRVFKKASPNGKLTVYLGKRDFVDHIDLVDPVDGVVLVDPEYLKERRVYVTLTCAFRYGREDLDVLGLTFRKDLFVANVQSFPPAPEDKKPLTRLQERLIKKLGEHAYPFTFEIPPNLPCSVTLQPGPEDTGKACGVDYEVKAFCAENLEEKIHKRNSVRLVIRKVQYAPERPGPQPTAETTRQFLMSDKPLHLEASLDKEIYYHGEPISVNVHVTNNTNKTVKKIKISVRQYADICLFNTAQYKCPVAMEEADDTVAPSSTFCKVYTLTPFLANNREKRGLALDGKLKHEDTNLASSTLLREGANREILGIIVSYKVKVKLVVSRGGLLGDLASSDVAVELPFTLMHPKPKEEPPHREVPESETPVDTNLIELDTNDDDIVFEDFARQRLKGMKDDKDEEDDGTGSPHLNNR
UniProt P05556: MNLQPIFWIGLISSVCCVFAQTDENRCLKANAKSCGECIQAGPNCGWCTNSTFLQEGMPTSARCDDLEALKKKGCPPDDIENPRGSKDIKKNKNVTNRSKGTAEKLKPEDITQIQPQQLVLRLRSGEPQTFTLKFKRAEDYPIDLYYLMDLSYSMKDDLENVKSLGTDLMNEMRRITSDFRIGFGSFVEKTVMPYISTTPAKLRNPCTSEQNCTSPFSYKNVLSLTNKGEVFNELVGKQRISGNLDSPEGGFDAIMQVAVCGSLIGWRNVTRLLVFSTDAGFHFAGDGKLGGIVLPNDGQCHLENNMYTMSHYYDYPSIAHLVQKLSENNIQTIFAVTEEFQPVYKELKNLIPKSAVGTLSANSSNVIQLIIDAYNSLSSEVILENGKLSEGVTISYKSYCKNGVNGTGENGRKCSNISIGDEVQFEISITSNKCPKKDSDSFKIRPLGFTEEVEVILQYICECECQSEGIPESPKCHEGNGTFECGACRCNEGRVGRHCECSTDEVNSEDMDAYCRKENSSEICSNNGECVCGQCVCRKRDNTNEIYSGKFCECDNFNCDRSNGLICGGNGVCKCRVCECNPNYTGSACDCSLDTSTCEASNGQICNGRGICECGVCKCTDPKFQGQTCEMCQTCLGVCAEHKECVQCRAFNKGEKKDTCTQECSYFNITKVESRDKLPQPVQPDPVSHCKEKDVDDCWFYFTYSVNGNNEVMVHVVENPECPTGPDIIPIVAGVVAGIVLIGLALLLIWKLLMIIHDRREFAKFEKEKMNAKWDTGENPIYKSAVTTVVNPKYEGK
UniProt P49407: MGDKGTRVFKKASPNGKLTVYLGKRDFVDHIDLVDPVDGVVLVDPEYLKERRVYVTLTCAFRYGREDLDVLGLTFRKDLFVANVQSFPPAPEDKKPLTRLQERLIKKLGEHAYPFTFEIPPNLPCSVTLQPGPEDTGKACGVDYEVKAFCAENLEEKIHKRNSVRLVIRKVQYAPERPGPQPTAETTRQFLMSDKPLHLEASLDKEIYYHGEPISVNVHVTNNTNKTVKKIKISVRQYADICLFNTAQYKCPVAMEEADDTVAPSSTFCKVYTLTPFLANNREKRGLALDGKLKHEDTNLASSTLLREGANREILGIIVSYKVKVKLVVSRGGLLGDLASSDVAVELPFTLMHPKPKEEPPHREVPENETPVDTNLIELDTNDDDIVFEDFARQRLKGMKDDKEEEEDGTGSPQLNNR
UniProt Q9Y490: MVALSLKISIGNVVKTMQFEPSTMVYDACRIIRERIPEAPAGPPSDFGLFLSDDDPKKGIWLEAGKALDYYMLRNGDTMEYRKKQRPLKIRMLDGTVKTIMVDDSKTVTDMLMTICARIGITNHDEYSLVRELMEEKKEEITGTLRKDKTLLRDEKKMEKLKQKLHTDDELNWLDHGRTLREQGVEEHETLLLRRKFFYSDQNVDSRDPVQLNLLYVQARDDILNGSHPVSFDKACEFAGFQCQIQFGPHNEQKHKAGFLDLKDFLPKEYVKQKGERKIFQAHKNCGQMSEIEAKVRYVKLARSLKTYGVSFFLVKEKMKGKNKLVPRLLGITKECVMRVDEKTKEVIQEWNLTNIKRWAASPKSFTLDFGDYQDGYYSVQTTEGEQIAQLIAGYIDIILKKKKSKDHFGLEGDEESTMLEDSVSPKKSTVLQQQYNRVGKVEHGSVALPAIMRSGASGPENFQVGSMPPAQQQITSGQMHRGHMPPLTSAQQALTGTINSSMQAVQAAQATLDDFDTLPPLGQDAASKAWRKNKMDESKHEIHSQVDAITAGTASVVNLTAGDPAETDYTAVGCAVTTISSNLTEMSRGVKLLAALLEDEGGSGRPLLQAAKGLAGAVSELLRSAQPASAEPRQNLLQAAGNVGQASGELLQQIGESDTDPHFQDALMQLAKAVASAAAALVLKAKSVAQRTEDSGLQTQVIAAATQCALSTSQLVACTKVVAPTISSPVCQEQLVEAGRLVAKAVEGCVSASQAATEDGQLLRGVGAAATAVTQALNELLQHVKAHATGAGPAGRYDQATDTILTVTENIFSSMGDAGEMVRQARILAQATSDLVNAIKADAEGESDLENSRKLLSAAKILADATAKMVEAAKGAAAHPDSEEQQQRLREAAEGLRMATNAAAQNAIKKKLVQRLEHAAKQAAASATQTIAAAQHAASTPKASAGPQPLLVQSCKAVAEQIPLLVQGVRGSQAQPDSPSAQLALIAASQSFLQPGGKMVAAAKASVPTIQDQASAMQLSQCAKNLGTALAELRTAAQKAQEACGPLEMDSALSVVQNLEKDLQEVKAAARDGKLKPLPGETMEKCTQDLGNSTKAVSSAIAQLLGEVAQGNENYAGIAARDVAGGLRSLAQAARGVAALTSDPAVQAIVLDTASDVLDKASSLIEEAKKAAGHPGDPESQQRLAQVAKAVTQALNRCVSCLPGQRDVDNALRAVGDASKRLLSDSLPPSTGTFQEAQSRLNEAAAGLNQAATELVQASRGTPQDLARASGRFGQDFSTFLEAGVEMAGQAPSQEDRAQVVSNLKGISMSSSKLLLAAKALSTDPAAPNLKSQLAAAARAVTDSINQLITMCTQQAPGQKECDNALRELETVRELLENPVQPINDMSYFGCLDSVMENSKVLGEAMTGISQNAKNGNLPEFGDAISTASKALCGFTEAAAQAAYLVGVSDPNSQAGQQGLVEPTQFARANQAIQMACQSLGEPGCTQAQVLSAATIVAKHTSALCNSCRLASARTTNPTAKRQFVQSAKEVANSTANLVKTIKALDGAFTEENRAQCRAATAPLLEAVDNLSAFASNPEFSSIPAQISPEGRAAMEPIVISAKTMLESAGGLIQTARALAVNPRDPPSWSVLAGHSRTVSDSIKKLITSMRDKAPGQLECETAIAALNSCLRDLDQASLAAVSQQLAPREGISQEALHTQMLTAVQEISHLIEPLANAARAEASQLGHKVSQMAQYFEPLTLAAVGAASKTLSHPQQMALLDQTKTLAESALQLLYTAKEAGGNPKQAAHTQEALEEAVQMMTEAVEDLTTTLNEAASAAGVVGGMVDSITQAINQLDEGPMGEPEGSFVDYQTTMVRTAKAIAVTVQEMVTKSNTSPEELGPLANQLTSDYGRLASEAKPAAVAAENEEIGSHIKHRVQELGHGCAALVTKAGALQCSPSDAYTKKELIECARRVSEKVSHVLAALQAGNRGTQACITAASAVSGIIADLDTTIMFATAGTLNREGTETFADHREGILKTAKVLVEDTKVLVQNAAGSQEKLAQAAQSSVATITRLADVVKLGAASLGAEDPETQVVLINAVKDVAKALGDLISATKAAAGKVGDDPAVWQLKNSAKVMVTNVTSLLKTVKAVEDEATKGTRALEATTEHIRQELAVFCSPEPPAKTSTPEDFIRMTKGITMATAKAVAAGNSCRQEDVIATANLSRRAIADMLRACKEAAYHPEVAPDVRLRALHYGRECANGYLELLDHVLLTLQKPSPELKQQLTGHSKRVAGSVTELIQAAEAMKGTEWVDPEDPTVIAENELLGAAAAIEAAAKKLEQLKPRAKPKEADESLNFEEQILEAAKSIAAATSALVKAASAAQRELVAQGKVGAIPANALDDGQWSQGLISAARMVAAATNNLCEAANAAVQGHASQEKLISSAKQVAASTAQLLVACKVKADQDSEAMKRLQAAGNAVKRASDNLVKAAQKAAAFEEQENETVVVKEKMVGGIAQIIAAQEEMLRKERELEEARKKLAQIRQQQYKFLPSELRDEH

Measured: binding

talin1 (from UniProt Q9Y490 1-2541)
binds: all assays above

integrin β1 (from UniProt P05556 21-798) (receptor)
binds: [1] | [3] | [4]

Reference: publication PMC9886921
